Laboratory results published in publication PMC5748837.
No constants are given. Whether binding was seen depends on the method and setting. Where a sequence is shown, tags or fusion partners need not be part of it.

Target: T1, C9ORF80, His-tagged (human), Q9NRY2
T1 chain: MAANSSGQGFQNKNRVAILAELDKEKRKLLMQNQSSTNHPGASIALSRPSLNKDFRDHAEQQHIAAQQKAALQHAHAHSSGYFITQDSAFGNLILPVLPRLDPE
Experiment: SEC-MALS; C9ORF80 500 ul at 4.2 mg/ml on SEC 70 column (Bio-Rad) in buffer D (25 mM Tris pH 8.0, 0.5 M NaCl, 100 uM Tween 20, 10% glycerol); both purified
Conditions: remark: other sources report otherwise

B1: C9ORF80, His-tagged, Q9NRY2 1-104 (protein)
chain: MAANSSGQGFQNKNRVAILAELDKEKRKLLMQNQSSTNHPGASIALSRPSLNKDFRDHAEQQHIAAQQKAALQHAHAHSSGYFITQDSAFGNLILPVLPRLDPE
Question: How did the binding turn out when B1 was run?
Answer: no binding (tested: 4.2 mg/ml)
